# Results from patent US20190192613A1, “COMPOSITION FOR PREVENTING OR TREATING HYPEROXIA-INDUCED LUNG INJURY COMPRISING WKYMVM PEPTIDE AS AN ACTIVE INGREDIENT” (SAMSUNG LIFE PUBLIC WELFARE FOUNDATION, priority 2017, published 2019).
# Part of at least one peptide drawing is inferred or uncertain, most often the ends.
# System: ERK
# Assay: Western blotting of p-ERK and total ERK in lungs of hyperoxia-induced lung injury mice
# Assay type: in vivo, mouse
# Conditions: HWK lungs vs NC and HC lungs
compound,measurement,value
"CSCC[C@H](NC(=O)[C@H](Cc1ccc(O)cc1)NC(=O)[C@H](CCCCN)NC(=O)[C@@H](N)Cc1c[nH]c2ccccc12)C(=O)N[C@H](C(=O)N[C@H](CCSC)C(=O)O)C(C)C [WKYMVm, Trp-Lys-Tyr-Met-Val-D-Met]",ratio of p-ERK to total ERK in lungs,significantly increased
